Source: PMC7556057
These are yes or no findings as the source states them, for the method shown. Binding seen in cells or lysates may run through a third protein. These calls come from enrichment with a bait or labelling near it, and not all partners need be listed. Where a sequence is shown, tags or fusion partners need not be part of it.

Chains of the proteins cited; added tags and fusions are not shown.
UniProt P21796: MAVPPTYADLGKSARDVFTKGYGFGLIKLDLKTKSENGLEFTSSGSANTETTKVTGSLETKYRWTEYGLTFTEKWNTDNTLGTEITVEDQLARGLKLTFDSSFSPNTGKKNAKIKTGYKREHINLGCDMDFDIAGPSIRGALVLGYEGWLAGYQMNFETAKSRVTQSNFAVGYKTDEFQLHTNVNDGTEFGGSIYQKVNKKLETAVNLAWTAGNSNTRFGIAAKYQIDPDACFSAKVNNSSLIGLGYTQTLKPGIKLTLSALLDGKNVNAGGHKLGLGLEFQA

Target: T1, tubulin polymerization-promoting protein family member 3 (TPPP3), FLAG-tagged (UniProt Q9BW30)
T1 sequence: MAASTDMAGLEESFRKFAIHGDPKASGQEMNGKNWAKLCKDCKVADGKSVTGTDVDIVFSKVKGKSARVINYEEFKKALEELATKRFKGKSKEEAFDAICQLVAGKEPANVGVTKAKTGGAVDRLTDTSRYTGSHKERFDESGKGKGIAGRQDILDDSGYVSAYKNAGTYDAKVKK
Assay: affinity purification with mass spectrometry; Co-IP from HUVECs transduced with vector or TPPP3; pelleted Co-IPs analysed by LC-MS/MS

binding: binds
Substance: voltage-dependent anion channel 1 (VDAC1), endogenous (from UniProt P21796 1-283)
